Reference: patent publication US20250099407A1, “2-AMINO BENZOPHENONE DERIVATIVES FOR TARGETED FERROPTOSIS INDUCTION IN CANCER THERAPY” (INDIAN INSTITUTE OF TECHNOLOGY KANPUR, priority 2023, published 2025)
The amount applied is not stated for every result.

System: cellular proteome in Huh-7 cells
Assay: In-gel fluorescence analysis / activity-based protein profiling of Huh-7 cellular proteome
Type: cell-based
Settings: Huh-7 proteome, click reaction with TAMRA-N3, SDS-Page

## CN(C(=O)CCl)c1ccccc1C(=O)c1ccccc1 [IITK3001, N-(2-benzoylphenyl)-2-chloro-N-methylacetamide]
  molecular weight of covalently labelled protein band: ~55 kDa
